Data taken from ChEMBL document CHEMBL3988442, “University of Dundee, Small-Polar-MMV Screening Library” (2021).

Results are given as percent effect.
How 0% and 100% were set is not recorded. Most values in the screen are low, and negative values occur.
This is an unselected part of the compounds tested.
Two or more numbers in one place are separate tests of the same structure; such repeats can differ widely.

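Viability assay of Plasmodium falciparum sporozoites; the read-out is not stated. The concentration is filed as 10 mM, unlikely as a test dose, so the dose is not known. The record gives no direction; compounds that gave an IC50 in retests scored well above the rest, so higher reads as lower viability. Strong results were mostly tested again. About 34,000 compounds were tested under these conditions; 0.84% (about 280) showed 50% or more at least once.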

{"structure": "CN(C)CCN1Cc2ncn(C)c2C(COCC(=O)N(C)C)C1", "stereo": "stereo not drawn", "percent effect": 10.44}
{"structure": "O=C(c1cccc(-c2ccc(F)cc2)c1)N1CCC2(CC1)[C@H](O)C[C@@H]2O", "percent effect": -28.46}
{"structure": "Cc1nonc1CN(C)Cc1cnn(-c2ccc(F)cc2)c1", "percent effect": -11.06}
{"structure": "O=C(NCC(F)(F)F)C1CSCN1S(=O)(=O)c1ccccc1F", "stereo": "stereo not drawn", "percent effect": 13.59}
{"structure": "O=C1CC(NCc2ccncc2)CN1Cc1cccc(F)c1", "stereo": "stereo not drawn", "percent effect": -6}
{"structure": "CCOc1ncccc1NC(=O)N1CCc2ccccc2C1", "percent effect": 1.587}
{"structure": "CCS(=O)(=O)CC(=O)N1CCCC1c1noc(C2CC2)n1", "stereo": "stereo not drawn", "percent effect": "-18.1 and -13.69"}
{"structure": "O=C(c1cc(F)ccc1F)C1CCN(C(=O)c2ccc(=O)[nH]n2)CC1", "percent effect": -11.79}
{"structure": "CN1C(=O)COc2ccc(C(=O)Cn3cnc4ccccc4c3=O)cc21", "percent effect": 6.136}
{"structure": "Cc1ccccc1OCC(O)CN1CCC(c2ccn[nH]2)CC1", "stereo": "stereo not drawn", "percent effect": 16.33}
{"structure": "Cc1noc(C)c1S(=O)(=O)N1CCc2nc(C3CCNCC3)ncc2C1.Cl", "percent effect": 0.1308}
{"structure": "CNC(=O)c1cnc(/C=C/c2ccc(O)c(OC)c2)s1", "percent effect": -0.7684}
{"structure": "CCc1n[nH]c(C2CN(C(=O)CCc3cccs3)CCO2)n1", "stereo": "stereo not drawn", "percent effect": -17.42}
{"structure": "CCn1c(-c2ccccc2)nn(CC(=O)NCCc2c[nH]cn2)c1=O", "percent effect": 10.02}
{"structure": "CCc1nc2ccccc2c(=O)n1CC1(O)CCN(C(=O)COC)CC1.Cl", "percent effect": 6.673}
{"structure": "c1ccc(OCCNC2CCCN(Cc3noc(C4CC4)n3)C2)cc1", "stereo": "stereo not drawn", "percent effect": -151.8}
{"structure": "Cc1noc(C)c1C(=O)NCC(C)N1CCc2ccccc21", "stereo": "stereo not drawn", "percent effect": 4.862}
{"structure": "Cc1noc(CN2Cc3ccccc3CC2c2nnc(C)o2)n1", "stereo": "stereo not drawn", "percent effect": -11.33}
{"structure": "Cc1cc(C(=O)N2CCCC(C(=O)c3cccs3)C2)c(=O)[nH]c1C", "stereo": "stereo not drawn", "percent effect": -6.559}
{"structure": "CCn1cc(C(=O)N2CCCC(c3noc(C)n3)C2)cn1", "stereo": "stereo not drawn", "percent effect": 4.119}
{"structure": "O=C(CCCN1CCCCC1)NC(C(=O)O)c1cccc(F)c1", "stereo": "stereo not drawn", "percent effect": 6.834}
{"structure": "CC(C)c1nc(C2CCCN(C(=O)Cc3cccnc3)C2)no1", "stereo": "stereo not drawn", "percent effect": -0.96}
{"structure": "COc1c(C2CCCN2CC(=O)NCc2ccccn2)c(C)nn1C", "stereo": "stereo not drawn", "percent effect": 1.264}
{"structure": "Cc1cc(CNC(=O)N2CCN(c3nc(C)c(C)s3)CC2)no1", "percent effect": -0.2255}
{"structure": "CC(C)Cc1cc(C(=O)NCCn2nc3ccccn3c2=O)[nH]n1", "percent effect": -8.413}
{"structure": "COCCC(=O)N1CCCC2(CCN(c3ccccc3)C2=O)C1", "stereo": "stereo not drawn", "percent effect": 0.613}
{"structure": "CCc1cccc(N2CCC(NC(=O)c3cc[nH]n3)CC2)c1", "percent effect": 3.58}
{"structure": "Cc1ccc(C(=O)N2CCN(S(C)(=O)=O)CC2)cc1N1CCNC1=O", "percent effect": -8.584}
{"structure": "COc1ccccc1OCc1cc(C(=O)N2CCN[C@H](C)C2)n[nH]1", "percent effect": -2}
{"structure": "CNc1nc(C2CCCN2C(C)=O)nc2c1CN(C1CCCC1)CC2", "stereo": "stereo not drawn", "percent effect": 6.862}
{"structure": "CCn1nc2c(cc1=O)CN(CC(=O)Nc1nncs1)CC2", "percent effect": 10.26}
{"structure": "Cn1cnc(S(=O)(=O)NCCN2CCCCCC2)c1Cl", "percent effect": -40.04}
{"structure": "Cc1ccc(C(CNCc2ccncc2)N2CCOCC2)s1", "stereo": "stereo not drawn", "percent effect": "-7.032 and 11.27 and 0.4273"}
{"structure": "CCc1nc(CN2CCCC(NCc3cccc(C(N)=O)c3)C2)no1", "stereo": "stereo not drawn", "percent effect": 4.001}
{"structure": "O=C(O)C(F)(F)F.O=C1CC(c2cccnc2)C2(CCN(S(=O)(=O)C3CC3)CC2)N1", "stereo": "stereo not drawn", "percent effect": 0.4571}
{"structure": "CCOc1ncccc1NC(=O)Nc1c(C)nn(C(C)C)c1C", "percent effect": 2.999}
{"structure": "Cc1cccc(C(=O)NCCCN2CCc3ccccc3C2)c1C", "percent effect": 15.58}
{"structure": "CCc1ccc(CNC(=O)CCNc2ncccn2)s1", "percent effect": -19.2}
{"structure": "Cc1cn2c(n1)CCC(NC(=O)c1nc(C)ncc1Cl)C2", "stereo": "stereo not drawn", "percent effect": -9.249}

The last 3 entries again:

| structure | percent effect |
|---|---|
| `Cc1cccc(C(=O)NCCCN2CCc3ccccc3C2)c1C` | 15.58% |
| `CCc1ccc(CNC(=O)CCNc2ncccn2)s1` | -19.2% |
| `Cc1cn2c(n1)CCC(NC(=O)c1nc(C)ncc1Cl)C2` (stereo not drawn) | -9.249% |